Test results reported in paper PMC10422954.
No constants are given. Whether binding was seen depends on the method and setting. In cells and extracts the contact can be indirect. Some results given as binding are weak or reduced against the parent protein; the word gives no strength.

By UniProt entry, the sequences of proteins in these tests, tags left out.
UniProt Q9JLV1: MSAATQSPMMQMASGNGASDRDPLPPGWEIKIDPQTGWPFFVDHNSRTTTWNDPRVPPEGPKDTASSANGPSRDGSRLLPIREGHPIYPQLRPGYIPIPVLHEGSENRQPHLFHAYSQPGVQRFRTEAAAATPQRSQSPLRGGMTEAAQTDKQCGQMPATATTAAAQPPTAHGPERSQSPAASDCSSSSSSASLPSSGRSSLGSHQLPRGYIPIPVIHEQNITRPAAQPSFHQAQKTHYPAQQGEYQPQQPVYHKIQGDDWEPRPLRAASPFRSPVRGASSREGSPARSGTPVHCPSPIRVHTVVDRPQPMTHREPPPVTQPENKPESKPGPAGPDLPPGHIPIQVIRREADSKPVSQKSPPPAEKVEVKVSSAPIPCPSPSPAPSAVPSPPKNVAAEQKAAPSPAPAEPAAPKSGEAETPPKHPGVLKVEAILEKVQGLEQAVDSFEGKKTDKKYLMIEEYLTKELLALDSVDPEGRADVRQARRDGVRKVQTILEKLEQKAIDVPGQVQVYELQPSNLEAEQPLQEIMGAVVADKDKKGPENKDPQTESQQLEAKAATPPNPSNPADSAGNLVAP
UniProt Q7TQK1: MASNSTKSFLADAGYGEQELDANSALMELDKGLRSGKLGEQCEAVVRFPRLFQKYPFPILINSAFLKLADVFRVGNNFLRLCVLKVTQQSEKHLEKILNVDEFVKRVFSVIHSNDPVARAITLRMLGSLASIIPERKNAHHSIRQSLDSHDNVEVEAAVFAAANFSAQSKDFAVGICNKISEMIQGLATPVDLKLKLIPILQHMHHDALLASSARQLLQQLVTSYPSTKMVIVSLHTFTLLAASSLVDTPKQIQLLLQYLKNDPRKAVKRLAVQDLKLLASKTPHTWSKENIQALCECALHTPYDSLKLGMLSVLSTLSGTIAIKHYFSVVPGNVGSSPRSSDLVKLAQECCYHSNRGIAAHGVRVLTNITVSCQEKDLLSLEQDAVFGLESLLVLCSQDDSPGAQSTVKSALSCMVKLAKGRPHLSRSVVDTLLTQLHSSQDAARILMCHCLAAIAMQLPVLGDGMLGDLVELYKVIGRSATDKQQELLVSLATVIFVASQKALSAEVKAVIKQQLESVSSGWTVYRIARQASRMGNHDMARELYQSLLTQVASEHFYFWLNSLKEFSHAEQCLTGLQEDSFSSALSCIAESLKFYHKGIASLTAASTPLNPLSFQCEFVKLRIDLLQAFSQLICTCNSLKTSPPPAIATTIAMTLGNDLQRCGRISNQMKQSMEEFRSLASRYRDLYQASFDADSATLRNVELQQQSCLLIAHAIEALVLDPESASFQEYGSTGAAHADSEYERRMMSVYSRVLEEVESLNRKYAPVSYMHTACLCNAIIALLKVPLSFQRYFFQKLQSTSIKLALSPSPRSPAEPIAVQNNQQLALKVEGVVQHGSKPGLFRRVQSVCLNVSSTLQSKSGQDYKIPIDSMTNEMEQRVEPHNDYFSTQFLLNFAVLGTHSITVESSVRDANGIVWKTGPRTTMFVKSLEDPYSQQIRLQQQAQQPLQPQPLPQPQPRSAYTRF

Target: Bcl-2-associated athanogene 3 (BAG3) (mouse (endogenous in C57BL/6 BMMSCs)) (UniProt Q9JLV1)
Assay: co-IP; BMMSC lysates (RIPA lysis buffer, precleared with protein A agarose) incubated with anti-BAG3 or anti-INTS7 antibody overnight at 4 °C, then protein A agarose 3 h at 4 °C; washed with PBS; western blotting

- binding: binds
Substance: INTS7 (from UniProt Q7TQK1 1-966)
